Reference: article PMC8357683
No constants are given. Whether binding was seen depends on the method and setting. Binding seen in cells or lysates may run through a third protein. Some binding calls cover weakened binding; strength is not graded here.

Molecular target: T1, NAD-dependent deacetylase sirtuin 2 (mouse (endogenous in heart tissue)) (UniProt Q8VDQ8)
T1 sequence: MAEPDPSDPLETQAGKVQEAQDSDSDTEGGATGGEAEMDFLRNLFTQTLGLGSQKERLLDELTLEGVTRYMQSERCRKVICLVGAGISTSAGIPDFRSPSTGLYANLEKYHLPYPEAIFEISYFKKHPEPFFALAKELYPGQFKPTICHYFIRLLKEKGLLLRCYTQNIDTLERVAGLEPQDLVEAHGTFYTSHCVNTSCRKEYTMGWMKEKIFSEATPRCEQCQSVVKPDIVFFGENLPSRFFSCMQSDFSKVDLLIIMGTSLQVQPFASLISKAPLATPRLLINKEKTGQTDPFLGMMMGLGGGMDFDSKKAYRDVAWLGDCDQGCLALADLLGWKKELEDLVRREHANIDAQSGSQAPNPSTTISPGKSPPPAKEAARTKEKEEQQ
Assay: co-IP; mouse heart tissue lysates (3 mg total protein per IP) incubated with primary antibody overnight at 4 °C, Protein G Dynabeads 6 h at 4 °C, one high salt wash and five washes with IP buffer, Western blot; anti-SIRT2 antibody with IgG control; hearts also from AAV-Scramble and AAV-LncHrt knock-down mice (knock-down promoted the interaction)

binding: binds
Substance: cyclin-dependent kinase CDK5 (from UniProt P49615 1-292)
